Measurements: US4315018A, “Specific parasiticidal use of 2-benzamido-5-nitro-thiazole derivatives” (priority 1978, dated 1982)

Assay: Necropsy observations in treated lambs
Format: in vivo
Conditions: at necroscopy
Description: Seven lambs (Group 1, black) were given a single 100 mg/kg of body weight dose of the test material dissolved in a mixture of water and gum syrup (0.5 ml/kg of body weight) orally administered with a syringe.
Seven lambs (Group 2, red) were given a single 50 mg/kg of body weight dose of the test material dissolved in a mixture of water and gum syrup (0.5 ml/kg of body weight) orally administered with a syringe.
48 hours after treatment, necroscopies were performed.

CC(=O)Oc1ccccc1C(=O)Nc1ncc([N+](=O)[O-])s1 [PH 5776, 2-(2'-acetoxy)-benzamido-5-nitro-thiazole]
Coloration of the content of the rumen (Group 1 lamb number 6, 100 mg/kg): highly colored yellow
Coloration of the content of the rumen (Group 2 lamb number 5, 50 mg/kg): highly colored yellow
